Measurements reported in PubChem BioAssay AID1259308 (NCATS, 2017).

Test: 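Candidate targets for better recombinant protein yield in mammalian cells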 (primary screen)
System: human HEK293 embryonic kidney cells stably expressing firefly luciferase (HEK-CMV-Luc2-Hygro)
Reagent: single siRNA against human genes, 0.8 pmol siRNA per well
Duration: 72 h
Read-out: 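Luciferase light (ONE-Glo) measured on one replicate plate set and viability (CellTiter-Glo) on the other, scaled to a negative control siRNA, with robust z-scores and luciferase per cell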
Scale: total luciferase, z-score: higher = more reporter protein produced
Call rule: 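Active when the median/MAD z-score for overall luciferase is greater than 3; a gene was taken forward for validation with new siRNAs if at least two of its three siRNAs passed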
Calls: active = raised luciferase; inactive = no rise
The deposit covers about 59,000 reagents; this is a part drawn at random. About 1,510 of them (2.6%) count as active. 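Calls use total luciferase alone and ignore viability, so some active siRNAs may act by altering cell number.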 Reagents against one gene are numbered here. Not all columns of the deposit are shown. Reagent sequences are not shown.

gene symbol | reagent | total luciferase, z-score | call
PER1 (GeneID 5187) | 1 | 0.537 | inactive
PER1 (GeneID 5187) | 2 | 1.53 | inactive
PER1 (GeneID 5187) | 3 | -0.493 | inactive
H3C6 (GeneID 8353) | 1 | -1.25 | inactive
H3C6 (GeneID 8353) | 2 | 1.36 | inactive
H3C6 (GeneID 8353) | 3 | 1.02 | inactive
SLC8A3 (GeneID 6547) | 1 | 0.497 | inactive
SLC8A3 (GeneID 6547) | 2 | -1.85 | inactive
SLC8A3 (GeneID 6547) | 3 | -0.121 | inactive
PMF1 (GeneID 11243) | 1 | 0.483 | inactive
PMF1 (GeneID 11243) | 2 | 1.66 | inactive
PMF1 (GeneID 11243) | 3 | -2.54 | inactive
ARHGEF28 (GeneID 64283) | 1 | -0.613 | inactive
ARHGEF28 (GeneID 64283) | 2 | -0.76 | inactive
ARHGEF28 (GeneID 64283) | 3 | 0.479 | inactive
ARHGAP10 (GeneID 79658) | 1 | 0.0925 | inactive
ARHGAP10 (GeneID 79658) | 2 | -0.14 | inactive
ARHGAP10 (GeneID 79658) | 3 | 0.0604 | inactive
IL10 (GeneID 3586) | 1 | -1.02 | inactive
IL10 (GeneID 3586) | 2 | -1.11 | inactive
IL10 (GeneID 3586) | 3 | 0.118 | inactive
CLK1 (GeneID 1195) | 1 | -1.71 | inactive
CLK1 (GeneID 1195) | 2 | 0.356 | inactive
CLK1 (GeneID 1195) | 3 | -0.367 | inactive
CIAO3 (GeneID 64428) | 1 | 0.0257 | inactive
CIAO3 (GeneID 64428) | 2 | -1.19 | inactive
CIAO3 (GeneID 64428) | 3 | 0.625 | inactive
CENPV (GeneID 201161) | 1 | 0.325 | inactive
CENPV (GeneID 201161) | 2 | -0.275 | inactive
CENPV (GeneID 201161) | 3 | 0.167 | inactive
TPBG (GeneID 7162) | 1 | -0.696 | inactive
TPBG (GeneID 7162) | 2 | 0.293 | inactive
TPBG (GeneID 7162) | 3 | 4.02 | active
ALG1L3P (GeneID 100132066) | 1 | -0.928 | inactive
ALG1L3P (GeneID 100132066) | 2 | -0.105 | inactive
ALG1L3P (GeneID 100132066) | 3 | 0.383 | inactive
SLC16A7 (GeneID 9194) | 1 | 0.842 | inactive
SLC16A7 (GeneID 9194) | 2 | -1 | inactive
SLC16A7 (GeneID 9194) | 3 | 1.67 | inactive
ZNF217 (GeneID 7764) | 1 | 0.287 | inactive
ZNF217 (GeneID 7764) | 2 | 0.65 | inactive
ZNF217 (GeneID 7764) | 3 | 0.66 | inactive

10 entries already listed, sorted by “total luciferase, z-score”, lowest first.
gene symbol | reagent | total luciferase, z-score | call
CIAO3 (GeneID 64428) | 2 | -1.19 | inactive
TPBG (GeneID 7162) | 1 | -0.696 | inactive
CLK1 (GeneID 1195) | 3 | -0.367 | inactive
CENPV (GeneID 201161) | 2 | -0.275 | inactive
CIAO3 (GeneID 64428) | 1 | 0.0257 | inactive
CENPV (GeneID 201161) | 3 | 0.167 | inactive
TPBG (GeneID 7162) | 2 | 0.293 | inactive
CENPV (GeneID 201161) | 1 | 0.325 | inactive
CLK1 (GeneID 1195) | 2 | 0.356 | inactive
CIAO3 (GeneID 64428) | 3 | 0.625 | inactive

The list goes on:
gene symbol | reagent | total luciferase, z-score | call
PSG5 (GeneID 5673) | 1 | -0.588 | inactive
PSG5 (GeneID 5673) | 2 | -1.97 | inactive
PSG5 (GeneID 5673) | 3 | -0.823 | inactive
NSMF (GeneID 26012) | 1 | 0.0954 | inactive
NSMF (GeneID 26012) | 2 | -0.889 | inactive
NSMF (GeneID 26012) | 3 | -0.778 | inactive
SINHCAF (GeneID 58516) | 1 | 3.29 | active
SINHCAF (GeneID 58516) | 2 | -1.55 | inactive
SINHCAF (GeneID 58516) | 3 | 0.631 | inactive
OR7E154P (GeneID 403296) | 1 | -0.28 | inactive
OR7E154P (GeneID 403296) | 2 | -0.175 | inactive
OR7E154P (GeneID 403296) | 3 | -0.153 | inactive
MAGI3 (GeneID 260425) | 1 | -0.291 | inactive
MAGI3 (GeneID 260425) | 2 | -1.37 | inactive
MAGI3 (GeneID 260425) | 3 | -1.15 | inactive
PURA (GeneID 5813) | 1 | 0.142 | inactive
PURA (GeneID 5813) | 2 | 0.0472 | inactive
PURA (GeneID 5813) | 3 | 0.59 | inactive
ATP2B1-AS1 (GeneID 338758) | 1 | 0.485 | inactive
ATP2B1-AS1 (GeneID 338758) | 2 | -0.294 | inactive
ATP2B1-AS1 (GeneID 338758) | 3 | 0.574 | inactive
RCOR2 (GeneID 283248) | 1 | -0.455 | inactive
RCOR2 (GeneID 283248) | 2 | 1.96 | inactive
RCOR2 (GeneID 283248) | 3 | -0.764 | inactive
PPIP5K2 (GeneID 23262) | 1 | -1.33 | inactive
PPIP5K2 (GeneID 23262) | 2 | -0.389 | inactive
PPIP5K2 (GeneID 23262) | 3 | -0.793 | inactive
CTSS (GeneID 1520) | 1 | 0.299 | inactive
CTSS (GeneID 1520) | 2 | 0.759 | inactive
CTSS (GeneID 1520) | 3 | -0.0691 | inactive
ETNPPL (GeneID 64850) | 1 | 2.33 | inactive
ETNPPL (GeneID 64850) | 2 | -1.96 | inactive
ETNPPL (GeneID 64850) | 3 | 0.115 | inactive
